The target of this experiment is T1, ovarian tumor family deubiquitinase 4 (OTUD4) (mouse (endogenous in IECs of C57BL/6 mice)) (UniProt B2RRE7).
T1 sequence: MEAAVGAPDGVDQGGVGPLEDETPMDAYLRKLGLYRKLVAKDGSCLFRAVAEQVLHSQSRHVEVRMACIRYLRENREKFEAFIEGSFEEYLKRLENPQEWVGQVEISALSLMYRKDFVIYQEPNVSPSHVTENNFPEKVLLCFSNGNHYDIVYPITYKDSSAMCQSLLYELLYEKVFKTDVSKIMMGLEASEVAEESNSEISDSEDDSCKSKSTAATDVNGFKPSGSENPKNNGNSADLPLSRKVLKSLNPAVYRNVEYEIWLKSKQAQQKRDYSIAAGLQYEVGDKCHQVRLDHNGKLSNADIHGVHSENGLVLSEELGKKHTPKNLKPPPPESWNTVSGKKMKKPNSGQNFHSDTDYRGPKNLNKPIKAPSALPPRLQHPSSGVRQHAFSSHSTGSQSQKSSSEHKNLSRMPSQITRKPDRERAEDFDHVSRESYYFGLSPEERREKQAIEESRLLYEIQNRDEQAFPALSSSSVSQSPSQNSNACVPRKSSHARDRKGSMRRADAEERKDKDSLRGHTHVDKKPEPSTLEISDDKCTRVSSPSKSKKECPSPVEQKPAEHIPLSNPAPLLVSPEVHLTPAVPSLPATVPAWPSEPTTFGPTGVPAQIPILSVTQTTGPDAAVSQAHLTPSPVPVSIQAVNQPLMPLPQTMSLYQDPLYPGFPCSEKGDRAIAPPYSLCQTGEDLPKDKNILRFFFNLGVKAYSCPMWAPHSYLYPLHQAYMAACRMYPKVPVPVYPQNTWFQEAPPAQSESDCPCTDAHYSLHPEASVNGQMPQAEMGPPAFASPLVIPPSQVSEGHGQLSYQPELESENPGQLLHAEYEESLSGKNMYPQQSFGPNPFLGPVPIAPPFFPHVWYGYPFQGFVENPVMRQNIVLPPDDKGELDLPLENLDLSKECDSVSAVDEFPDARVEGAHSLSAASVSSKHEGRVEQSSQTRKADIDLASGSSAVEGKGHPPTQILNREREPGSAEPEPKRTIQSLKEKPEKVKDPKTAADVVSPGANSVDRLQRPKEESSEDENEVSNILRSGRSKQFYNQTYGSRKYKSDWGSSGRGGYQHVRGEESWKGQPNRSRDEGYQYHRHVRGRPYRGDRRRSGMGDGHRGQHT
Description: co-IP; whole-cell extract (NP-40 lysis buffer: 150 mM NaCl, 1 mM EDTA, 1% nonidet P-40) of IECs from wild-type C57BL/6 mice incubated with control IgG or anti-OTUD4 and protein G agarose overnight; washed three times; immunoblot. In general terms: A western blot detects proteins with antibodies after separation by electrophoresis.

Amino acid sequences for entries named in this document (tags omitted).
UniProt P22366: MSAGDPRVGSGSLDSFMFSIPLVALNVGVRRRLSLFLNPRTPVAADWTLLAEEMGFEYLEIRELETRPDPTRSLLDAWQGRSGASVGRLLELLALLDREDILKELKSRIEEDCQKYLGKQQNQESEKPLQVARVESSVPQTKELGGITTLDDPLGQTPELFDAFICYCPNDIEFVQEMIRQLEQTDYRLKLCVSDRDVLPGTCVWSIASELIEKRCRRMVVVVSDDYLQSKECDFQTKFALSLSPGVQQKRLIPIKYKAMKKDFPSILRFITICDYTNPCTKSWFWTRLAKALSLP

Results are given in words; binding and its absence hold for the method and conditions named. In cells and extracts the contact can be indirect. Some results given as binding are weak or reduced against the parent protein; the word gives no strength.

Results on one substance are retold here after paper PMC10123543.

Turning to MyD88 (from UniProt P22366 1-296), the binding result is “binds”.
